Laboratory results taken from publication PMC5382265 (Nature Communications, 2017).
Strings that start with PEPTIDE1 are HELM notation: dots part the residues, brackets hold end groups and non-standard residues.

assay: peptide synthesis; conditions: whole synthesis, UV 215 nm

Substance	final HPLC purity [%]
PEPTIDE1{[ac].[dY].D.Y.P.G.D.Y.S.Y.L.Y.G.T.C.G.[am]}$$$$V2.0	>95
PEPTIDE1{[CH2CO].[dY].L.D.W.P.N.C.S.T.C.G.[am]}$PEPTIDE1,PEPTIDE1,1:R3-8:R3$$$V2.0	>90
PEPTIDE1{[CH2CO].[dY].S.W.P.N.A.P.E.I.W.K.C.C.G.[am]}$PEPTIDE1,PEPTIDE1,1:R3-13:R3$$$V2.0	>95
PEPTIDE1{[CH2CO].[dY].D.Y.P.G.D.Y.C.Y.L.Y.G.T.[am]}$PEPTIDE1,PEPTIDE1,1:R3-9:R3$$$V2.0	>95
^Ac-DYDYPGDYCYLYGTCG-NH2	>90
^Ac-DYLYGTCG-NH2 (N-acetyl; C-terminal amide)	>95
PEPTIDE1{[CH2CO].[dY].P.E.W.P.N.C.S.T.C.G.[am]}$PEPTIDE1,PEPTIDE1,1:R3-8:R3$$$V2.0	>90
^Ac-DYDYPGDYCYLY-NH2	>95
^Ac-DYDYPGDYC-NH2 (N-acetyl; C-terminal amide)	>90
PEPTIDE1{[CH2CO].[dY].D.Y.P.G.D.Y.C.Y.[am]}$PEPTIDE1,PEPTIDE1,1:R3-9:R3$$$V2.0	>90
PEPTIDE1{[CH2CO].Y.T.T.L.A.N.P.F.R.I.L.H.C.G.[am]}$PEPTIDE1,PEPTIDE1,1:R3-14:R3$$$V2.0	>90
PEPTIDE1{[CH2CO].[dY].D.Y.P.G.D.Y.C.Y.L.Y.G.[am]}$PEPTIDE1,PEPTIDE1,1:R3-9:R3$$$V2.0	>95
PEPTIDE1{[CH2CO].[dY].L.E.W.P.N.C.N.T.C.G.[am]}$PEPTIDE1,PEPTIDE1,1:R3-8:R3$$$V2.0	>90
^Ac-DYDLRTPWLKRHACG-NH2 (N-acetyl; C-terminal amide)	>90
^Ac-DYDYPGDYCYLYGTSG-NH2	>95
^Ac-DYDYPGDYSYLY-NH2 (N-acetyl; C-terminal amide)	>95
PEPTIDE1{[CH2CO].[dY].D.Y.P.G.D.H.C.Y.L.Y.G.T.C.G.[am]}$PEPTIDE1,PEPTIDE1,1:R3-9:R3$$$V2.0	>90
PEPTIDE1{[CH2CO].[dY].A.V.W.P.N.C.R.T.C.G.[am]}$PEPTIDE1,PEPTIDE1,1:R3-8:R3$$$V2.0	>95
^Ac-DYDYPGDYCYLYGTC-NH2	>90
PEPTIDE1{[CH2CO].Y.I.T.L.A.N.P.F.R.I.L.H.C.G.[am]}$PEPTIDE1,PEPTIDE1,1:R3-14:R3$$$V2.0	>85
PEPTIDE1{[CH2CO].[dY].D.Y.P.G.D.Y.C.Y.L.[am]}$PEPTIDE1,PEPTIDE1,1:R3-9:R3$$$V2.0	>90
^Ac-DYQNRSIWLYGCCG-NH2	>90
